# Assay results published in article PMC10517019.
# Protein sequences, listed by entry. Tags and fused reporters are not part of them.
# UniProt P26038: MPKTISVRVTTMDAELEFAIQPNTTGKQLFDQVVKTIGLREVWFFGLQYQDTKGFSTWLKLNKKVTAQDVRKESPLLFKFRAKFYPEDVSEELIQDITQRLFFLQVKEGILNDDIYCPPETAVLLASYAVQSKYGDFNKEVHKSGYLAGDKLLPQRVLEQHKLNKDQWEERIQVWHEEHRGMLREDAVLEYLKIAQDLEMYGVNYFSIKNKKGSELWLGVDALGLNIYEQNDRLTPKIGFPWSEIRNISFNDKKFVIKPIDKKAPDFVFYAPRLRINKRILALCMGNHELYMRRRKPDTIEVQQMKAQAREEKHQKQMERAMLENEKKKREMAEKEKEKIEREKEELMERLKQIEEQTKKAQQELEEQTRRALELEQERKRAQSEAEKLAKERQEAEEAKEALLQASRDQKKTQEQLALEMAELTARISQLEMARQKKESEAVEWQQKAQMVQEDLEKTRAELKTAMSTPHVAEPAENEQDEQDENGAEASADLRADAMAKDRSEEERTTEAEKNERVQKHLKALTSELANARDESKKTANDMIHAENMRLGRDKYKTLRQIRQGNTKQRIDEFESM
# Molecular target: T1, F-box and WD repeat-containing protein 2 (FBXW2), endogenous (human (endogenous in MCF7 and MDA-MB-231)) (UniProt Q9UKT8)
# T1 sequence: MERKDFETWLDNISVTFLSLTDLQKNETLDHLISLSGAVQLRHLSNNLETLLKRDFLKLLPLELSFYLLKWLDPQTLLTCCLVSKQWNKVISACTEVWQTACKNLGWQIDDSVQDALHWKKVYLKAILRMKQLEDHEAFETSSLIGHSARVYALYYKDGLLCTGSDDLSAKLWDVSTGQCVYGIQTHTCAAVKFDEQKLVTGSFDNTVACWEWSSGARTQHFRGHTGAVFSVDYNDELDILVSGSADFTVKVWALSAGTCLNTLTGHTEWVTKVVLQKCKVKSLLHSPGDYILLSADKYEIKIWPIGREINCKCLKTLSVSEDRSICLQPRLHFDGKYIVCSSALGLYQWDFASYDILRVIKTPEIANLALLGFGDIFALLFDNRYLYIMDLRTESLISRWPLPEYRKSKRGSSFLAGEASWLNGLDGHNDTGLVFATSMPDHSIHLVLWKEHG
# Experiment: affinity purification with mass spectrometry; FBXW2 immunoprecipitated from MCF7 whole-cell lysate; bands unique to the FBXW2 immunoprecipitate excised from SDS-PAGE, trypsin digested, LC-MS/MS
substance,measurement,value
"Membrane-organizing extension spike protein (Moesin), endogenous (from UniProt P26038 1-577)",binding,binds

# Results are given in words; binding and its absence hold for the method and conditions named. Binding seen in cells or lysates may run through a third protein. These calls come from enrichment with a bait or labelling near it, and not all partners need be listed.
